Assay results taken from publication PMC12624607.

Amino acid sequences for entries named in this document (tags omitted).
UniProt Q9DAM2: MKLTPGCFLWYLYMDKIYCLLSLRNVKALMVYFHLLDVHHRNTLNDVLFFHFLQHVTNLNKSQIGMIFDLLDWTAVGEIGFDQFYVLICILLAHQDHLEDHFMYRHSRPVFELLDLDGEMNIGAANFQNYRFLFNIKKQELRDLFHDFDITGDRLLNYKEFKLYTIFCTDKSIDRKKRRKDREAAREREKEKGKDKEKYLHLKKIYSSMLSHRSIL

Molecular target: transmembrane protein 249 (TMEM249), GFP-tagged (mouse)
Assay: co-IP; TMEM249-GFP co-transfected with each MYC-tagged CatSper component into HEK293T cells; co-immunoprecipitation complexes immunoblotted with anti-GFP and anti-MYC antibodies; which tag was precipitated is not told

| Molecule | binding |
| --- | --- |
| CATSPERβ, MYC-tagged (protein, UniProt A2RTF1 1-1109) MESPLIYVMLVLLNVFVFSSGVIHNKGKERTYFSCSGEGILTGLHTIKLFLTMDNLKVRCFFRNENQSPSKEILGLFTSGGLAPNMIITNSTFYGGYYFKLTPFSNRLEWLIDIPRQNITVNTDIAAVEQWMIKITMHEGLNIYDTEGTLLDLVREPILQWNLGRVLTEMEVRDLYPEVNDIKVTKSPCANDVALIGFMMKPSSNGVFIGKTISGFWTYKECIWHDLTEIIYAELKDEHQGLTVIDLVLTNHFLVILTSLGLYVSSDLRYPTTSQIKLSRAEFCGFERVDYIRGNLWYNEKCFANRESFEVDYVTITFNRNRTLSESSSCFFSKEPFLHWLPCVFSTIKNEKSIPRVITFLIDQETDSGIYLFNVQDTKETYVTVAMLKDGKPSPRPKFPSFHFPSTFTLPLGMIFHPRSHFLYVYGSQIWVSMDGGNTFEMLCNLFSHHVTKTSNSFYTSDIVFIVEDGRILTTKAGLTTYSELGILKDAIFTLYYDQLGYIHKLTPENFDAGSKLLGHGNSGSIFGKRPDLGFEAILVPQYISTNEMYFFAHVPLTMPTNIQWKKRFKTIHLGKTIEFSKTGLANIKNVYMHKTEPVGFQTSIHTEIIVPFGIENSKDSPCLLSDLEITYSGKLYYTIKLLSKNPLHELKSTDVEKSVLIPGYSSFLIMNITDKWTASALATMPQAIKSNLKFLTGSWFLYNFGTAGGRKWSISTRQCNYWIQQDSLDFMSLNLVKYIDVGNTIDFQFKIIPKAMSTFPIPPVSMVVGNPGLVEVKTQGVFDLNENYYLDIHVSGRFFQKGSTSIALVLWEGSSKCYAITLLPTIKSSCSYLRTMHHTPGRHIPPEDWISGVHKDSQGFNMIKTLPINYRPPSHMGISIPLTDNFYHADPSKPIPRNQFHKSKETGKYKQCANVTSRAMCNCSEHQKFSHAVAFSDCKEKVHRFKFPVTQYPVVLEIFNERDKISAEPPYLVTMTEVNMRKNWQLKHNEPENVKKMKHYLEPLLKTPVYNPLGLNLTIQGSELFHFKVSVVPGVSFCELSEEFQIYVDEVPLPFPGHALIAVATSVVLGVLIFIAFVFQLRNIHPLKALKKSIRGNPGLTSSTTVSS | binds weakly |
| CATSPER1, MYC-tagged (protein, UniProt Q91ZR5 1-686) MDQSSRRDESYHETHPGSLDPSHQSHPHPHPHPTLHRPNQGGVYYDSPQHGMFQQPYQQHGGFHQQNELQHLREFSDSHDNAFSHHSYQQDRAGVSTLPNNISHAYGGSHPLAESQHSGGPQSGPRIDPNHHPHQDDPHRPSEPLSHPSSTGSHQGTTHQQYHERSHHLNPQQNRDHADTISYRSSTRFYRSHAPFSRQERPHLHADHHHEGHHAHSHHGEHPHHKEQRHYHGDHMHHHIHHRSPSASQLSHKSHSTLATSPSHVGSKSTASGARYTFGARSQIFGKAQSRESLRESASLSEGEDHVQKRKKAQRAHKKAHTGNIFQLLWEKISHLLLGLQQMILSLTQSLGFETFIFIVVCLNTVILVAQTFTELEIRGEWYFMVLDSIFLSIYVLEAVLKLIALGLEYFYDPWNNLDFFIMVMAVLDFVLLQINSLSYSFYNHSLFRILKVFKSMRALRAIRVLRRLSILTSLHEVAGTLSGSLPSITAILTLMFTCLFLFSVVLRALFQDSDPKRFQNIFTTLFTLFTMLTLDDWSLIYIDNRAQGAWYIIPILMIYIVIQYFIFLNLVIAVLVDNFQMALLKGLEKVKLEQAARVHEKLLDDSLTDLNKADANAQMTEEALKMQLIEGMFGNMTVKQRVLHFQFLQLVAAVEQHQQKFRSQAYVIDELVDMAFEAGDDDYGK | no binding |

The remaining lines, values ahead:

| binding | Molecule |
| --- | --- |
| binds | EFCAB9, MYC-tagged (from UniProt Q9DAM2 1-216) |
| binds | CATSPER4, MYC-tagged (protein, UniProt Q8BVN3 1-442) MSEKHKWWQQVENIDITHLGPKRKAYELLGRHEEQVLINRRDVMEKKDAWDVQEFITQMYIKQLLRHPAFQLLLAFLLLSNAITIALRTNSYLGQKHYELFSTIDDIVLTILICEVLLGWLNGFWIFWKDGWNILNFAIVFILFMGFFIKQLDMVAITYPLRVLRLVHVCMAVEPLARIIKVILQSMPDLANVMALILFFMLVFSVFGVTLFGAFVPKHFQNMGVALYTLFICITQDGWLDIYTDFQMDEREYAMEVGGAIYFAVFITLGAFIGLNLFVVVVTTNLEQMMKTGEEEGHLNIKFTETEEDEDWTDELPLVHCTEARKDTSTVPKEPLVGGPLSNLTEKTCDNFCLVLEAIQENLMEYKEIREELNMIVEEVSSIRFNQEQQNVILHKYTSKSATFLSEPPEGANKQDLITALVSREKVSDSNINMVNKHKFSH |

No constants are given. Whether binding was seen depends on the method and setting. Binding seen in cells or lysates may run through a third protein. Binding calls can cover weak binding; strength is not graded here. Sequences can lack the tags named with a protein.
